Drawing on patent publication US20120034228A1, this text covers binding for 1 molecule.

These are yes or no findings as the source states them, for the method shown.

The assay concerns the target 1-27 CD3-EpCAM comprising the swine 27 mer (cynomolgus). Nature of the assay: FACS on transfected 293-HEK cells.

B1: E2M HLP (scFv)
scFv: EVQLLESGGGLVQPGGSLKLSCAASGFTFNGYAMNWVRQAPGKGLEWVARIRSKYNNYATYYADSVKERFTISRDDSKNTAYLQMNNLKTEDTAVYYCVRHRNFGNSYLSWFAYWGQGTLVTVSSGGGGSGGGGSGGGGSELVVTQEPSLTVSPGGTVTLTCRSSTGAVTSGYYPNWVQQKPGQAPRGLIGATDMRPSGTPARFSGSLLGGKAALTLSGVQPEDEAEYYCALWYSNRWVFGGGTKLTVL
B1: the binding entry was “no binding”.
